Experimental data published in publication doi:10.1101/2020.04.07.029496 (bioRxiv, 2020).
Positions count from the first letter of the chain named. Results are given in words; binding and its absence hold for the method and conditions named. Binding can be weak; no strength is given.

Legend:
Experiment in all cases: SEC
[1] = molecular target: T1, S. cerevisiae Tip20 (S. cerevisiae) (UniProt P33891)
T1 sequence: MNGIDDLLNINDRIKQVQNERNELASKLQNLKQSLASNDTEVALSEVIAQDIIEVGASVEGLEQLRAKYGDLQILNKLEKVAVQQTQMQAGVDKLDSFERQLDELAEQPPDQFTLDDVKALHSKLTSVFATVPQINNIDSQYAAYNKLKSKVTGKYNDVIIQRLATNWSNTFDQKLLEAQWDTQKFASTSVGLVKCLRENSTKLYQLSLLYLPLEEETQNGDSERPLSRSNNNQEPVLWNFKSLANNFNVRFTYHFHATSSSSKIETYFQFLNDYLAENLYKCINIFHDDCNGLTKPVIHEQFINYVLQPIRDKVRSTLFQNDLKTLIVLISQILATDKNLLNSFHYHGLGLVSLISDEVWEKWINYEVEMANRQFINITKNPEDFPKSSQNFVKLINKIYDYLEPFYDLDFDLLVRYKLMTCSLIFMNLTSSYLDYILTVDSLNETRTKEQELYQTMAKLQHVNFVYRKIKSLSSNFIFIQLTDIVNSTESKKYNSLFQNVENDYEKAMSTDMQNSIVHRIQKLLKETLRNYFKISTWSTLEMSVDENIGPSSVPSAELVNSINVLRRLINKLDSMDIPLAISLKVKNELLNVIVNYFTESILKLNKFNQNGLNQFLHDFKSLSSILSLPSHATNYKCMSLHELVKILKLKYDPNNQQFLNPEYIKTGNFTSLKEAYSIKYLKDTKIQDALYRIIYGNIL

[2] = molecular target: T2, S. cerevisiae Tip20_(I481D,L585D) (S. cerevisiae, UniProt P33891 1-701, I481D | L585D)
T2 sequence: T1 sequence with I481D, L585D

[3] = molecular target: T3, S. cerevisiae Tip20 Ile-481 to aspartate (S. cerevisiae) (UniProt P33891)
T3 sequence: T1 sequence with I481D

[4] = molecular target: T4, S. cerevisiae Tip20_(L585D) (S. cerevisiae) (UniProt P33891)
T4 sequence: T1 sequence with L585D

Row | binding [1] | binding [2] | binding [3] | binding [4] | Substance
1 | binds | – | – | – | S. cerevisiae MBP-Sec20NTD Leu149 to aspartate (domain or fragment)
2 | binds | binds | binds | binds | S. cerevisiae MBP-Sec20NTD (domain or fragment)
3 | binds | – | – | – | S. cerevisiae MBP-Sec20NTD Val-82 to aspartate (domain or fragment)
4 | binds | – | – | – | S. cerevisiae MBP-Sec20NTD V82D/L149D (domain or fragment)
